According to PMC12859066:
These are yes or no findings as the source states them, for the method shown. In cells and extracts the contact can be indirect. Some results given as binding are weak or reduced against the parent protein; the word gives no strength.

Amino acid sequences for entries named in this document (tags omitted).
UniProt P36402: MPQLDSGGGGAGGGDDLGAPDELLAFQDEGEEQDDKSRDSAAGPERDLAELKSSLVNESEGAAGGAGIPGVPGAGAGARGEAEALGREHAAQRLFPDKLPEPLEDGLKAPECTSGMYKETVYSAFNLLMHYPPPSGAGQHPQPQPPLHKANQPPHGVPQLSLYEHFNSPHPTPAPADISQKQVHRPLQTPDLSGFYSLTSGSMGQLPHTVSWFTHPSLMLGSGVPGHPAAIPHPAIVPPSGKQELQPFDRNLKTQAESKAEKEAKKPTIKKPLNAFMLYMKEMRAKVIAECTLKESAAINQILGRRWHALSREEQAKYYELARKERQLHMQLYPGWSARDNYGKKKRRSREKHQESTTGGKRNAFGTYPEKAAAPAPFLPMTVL
UniProt P35222: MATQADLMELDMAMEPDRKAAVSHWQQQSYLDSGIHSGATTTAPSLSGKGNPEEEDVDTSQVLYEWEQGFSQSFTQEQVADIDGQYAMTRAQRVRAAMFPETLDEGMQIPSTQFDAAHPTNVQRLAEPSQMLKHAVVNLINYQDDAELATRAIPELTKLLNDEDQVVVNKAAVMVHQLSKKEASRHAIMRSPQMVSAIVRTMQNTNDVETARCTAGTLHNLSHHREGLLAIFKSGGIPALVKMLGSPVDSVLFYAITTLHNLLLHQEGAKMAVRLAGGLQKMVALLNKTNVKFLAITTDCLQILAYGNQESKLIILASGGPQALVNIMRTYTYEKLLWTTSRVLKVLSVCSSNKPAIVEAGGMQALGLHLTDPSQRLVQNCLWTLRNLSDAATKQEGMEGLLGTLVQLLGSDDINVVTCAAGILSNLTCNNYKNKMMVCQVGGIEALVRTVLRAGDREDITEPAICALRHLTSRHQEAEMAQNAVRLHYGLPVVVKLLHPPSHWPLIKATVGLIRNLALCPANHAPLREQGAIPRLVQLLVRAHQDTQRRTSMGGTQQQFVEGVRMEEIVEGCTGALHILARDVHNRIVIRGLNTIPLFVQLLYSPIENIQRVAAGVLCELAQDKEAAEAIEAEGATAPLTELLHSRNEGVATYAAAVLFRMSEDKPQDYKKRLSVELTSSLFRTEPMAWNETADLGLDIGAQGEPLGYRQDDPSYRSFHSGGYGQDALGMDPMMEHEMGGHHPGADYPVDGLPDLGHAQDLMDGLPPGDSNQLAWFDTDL

Biological target: TCF7 (human (endogenous in ESC-RPE cells)) (UniProt P36402)
Test: co-IP; Protein A + G magnetic beads with 5 μg antibodies (against TCF7, β-Catenin) or normal IgG; 5 × 10^6 cells lysed in IP lysis buffer, incubated with the beads at 4 °C overnight; washed with TBS; Western blotting

binding: binds
Substance: β-catenin (from UniProt P35222 1-781)
